Data published in paper PMC2199960.

Target: collagen XII, large variant (large subunit, 320 kD) (chick) (UniProt P13944)
Experiment: electron microscopy

For “collagen XII, large variant (large subunit, 320 kD), P13944 24-3124”, the stoichiometry N was 3.
